The supplement of paper PMC12823440, “Inhibitors supercharge kinase turnover through native proteolytic circuits” (Nature, 2025)
Structures can show the parent of a compound that is named as a salt. This is one part of the list. Hit calls seldom repeat between salt and free forms of one compound.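 Kinases, fused to nanoluciferase, were expressed in K562 cells; luminescence was measured every 4 h from 2 to 18 h as percent of control (DMSO = 100%, positive control = 0%). A time point is decreased if signal falls significantly (2 sigma). Hits were called by the authors by a rule that is not shown; the count of time points alone does not decide it.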

Protein sequences, listed by entry. Tags and fused reporters are not part of them. Lines headed by an entry give the natural chain unless they say otherwise; changes in a name come on top.
UniProt P29317, whole entry: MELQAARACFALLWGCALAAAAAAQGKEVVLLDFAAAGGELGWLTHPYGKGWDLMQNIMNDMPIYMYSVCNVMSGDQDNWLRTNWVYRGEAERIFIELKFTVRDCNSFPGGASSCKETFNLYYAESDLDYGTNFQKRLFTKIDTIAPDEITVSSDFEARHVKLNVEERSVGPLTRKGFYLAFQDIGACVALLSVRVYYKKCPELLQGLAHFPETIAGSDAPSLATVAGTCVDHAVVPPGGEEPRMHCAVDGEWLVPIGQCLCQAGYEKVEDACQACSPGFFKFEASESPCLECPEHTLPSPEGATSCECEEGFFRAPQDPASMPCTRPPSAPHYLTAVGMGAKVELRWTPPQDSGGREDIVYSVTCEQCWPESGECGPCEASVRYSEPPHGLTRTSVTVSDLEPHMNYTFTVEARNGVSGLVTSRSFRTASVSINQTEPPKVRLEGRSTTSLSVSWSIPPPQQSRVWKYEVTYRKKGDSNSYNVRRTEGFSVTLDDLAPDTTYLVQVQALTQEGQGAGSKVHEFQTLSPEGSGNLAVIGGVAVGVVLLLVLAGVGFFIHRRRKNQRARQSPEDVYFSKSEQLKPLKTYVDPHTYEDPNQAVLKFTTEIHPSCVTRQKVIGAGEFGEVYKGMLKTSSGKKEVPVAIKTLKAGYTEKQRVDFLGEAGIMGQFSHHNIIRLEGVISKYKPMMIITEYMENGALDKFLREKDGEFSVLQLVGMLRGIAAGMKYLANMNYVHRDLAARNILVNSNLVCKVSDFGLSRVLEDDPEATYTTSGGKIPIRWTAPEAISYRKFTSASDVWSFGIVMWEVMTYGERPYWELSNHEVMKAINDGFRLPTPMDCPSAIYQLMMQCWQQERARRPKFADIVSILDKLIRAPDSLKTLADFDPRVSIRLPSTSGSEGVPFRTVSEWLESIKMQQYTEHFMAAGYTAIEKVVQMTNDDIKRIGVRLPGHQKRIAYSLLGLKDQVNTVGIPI
UniProt P21860, whole entry: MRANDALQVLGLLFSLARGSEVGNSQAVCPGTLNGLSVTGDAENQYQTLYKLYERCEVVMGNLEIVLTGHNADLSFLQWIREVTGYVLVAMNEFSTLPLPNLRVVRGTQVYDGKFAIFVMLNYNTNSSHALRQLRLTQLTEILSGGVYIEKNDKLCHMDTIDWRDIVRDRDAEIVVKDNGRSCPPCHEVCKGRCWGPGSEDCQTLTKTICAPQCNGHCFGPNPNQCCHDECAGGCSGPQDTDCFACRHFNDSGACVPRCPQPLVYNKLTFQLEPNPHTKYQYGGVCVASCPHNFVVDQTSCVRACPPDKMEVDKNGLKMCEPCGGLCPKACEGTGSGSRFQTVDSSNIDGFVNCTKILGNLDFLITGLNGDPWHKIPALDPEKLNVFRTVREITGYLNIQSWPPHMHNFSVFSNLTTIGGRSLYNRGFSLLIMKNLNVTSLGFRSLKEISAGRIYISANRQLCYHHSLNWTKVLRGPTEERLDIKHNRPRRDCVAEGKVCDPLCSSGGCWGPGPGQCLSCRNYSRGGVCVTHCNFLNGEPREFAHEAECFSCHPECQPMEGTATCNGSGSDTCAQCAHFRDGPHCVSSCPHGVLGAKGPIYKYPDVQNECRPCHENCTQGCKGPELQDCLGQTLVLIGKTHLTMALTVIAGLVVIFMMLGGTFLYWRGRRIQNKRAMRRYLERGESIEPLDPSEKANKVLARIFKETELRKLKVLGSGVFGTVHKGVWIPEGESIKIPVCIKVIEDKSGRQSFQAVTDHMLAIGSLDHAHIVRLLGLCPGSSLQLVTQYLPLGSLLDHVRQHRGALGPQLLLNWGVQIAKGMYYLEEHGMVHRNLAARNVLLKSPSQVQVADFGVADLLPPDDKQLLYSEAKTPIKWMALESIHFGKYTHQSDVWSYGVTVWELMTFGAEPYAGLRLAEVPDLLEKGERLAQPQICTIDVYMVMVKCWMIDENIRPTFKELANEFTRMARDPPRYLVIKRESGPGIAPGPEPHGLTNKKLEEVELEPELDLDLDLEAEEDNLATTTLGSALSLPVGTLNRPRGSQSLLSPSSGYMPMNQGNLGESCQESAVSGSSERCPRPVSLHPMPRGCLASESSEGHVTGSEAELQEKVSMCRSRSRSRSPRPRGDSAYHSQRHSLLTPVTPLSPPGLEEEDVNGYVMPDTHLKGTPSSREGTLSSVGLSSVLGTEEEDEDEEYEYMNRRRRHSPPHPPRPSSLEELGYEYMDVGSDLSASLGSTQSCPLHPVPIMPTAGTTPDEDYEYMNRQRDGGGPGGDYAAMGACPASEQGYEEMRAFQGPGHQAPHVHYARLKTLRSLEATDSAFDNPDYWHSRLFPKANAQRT
UniProt Q15303, whole entry R711C: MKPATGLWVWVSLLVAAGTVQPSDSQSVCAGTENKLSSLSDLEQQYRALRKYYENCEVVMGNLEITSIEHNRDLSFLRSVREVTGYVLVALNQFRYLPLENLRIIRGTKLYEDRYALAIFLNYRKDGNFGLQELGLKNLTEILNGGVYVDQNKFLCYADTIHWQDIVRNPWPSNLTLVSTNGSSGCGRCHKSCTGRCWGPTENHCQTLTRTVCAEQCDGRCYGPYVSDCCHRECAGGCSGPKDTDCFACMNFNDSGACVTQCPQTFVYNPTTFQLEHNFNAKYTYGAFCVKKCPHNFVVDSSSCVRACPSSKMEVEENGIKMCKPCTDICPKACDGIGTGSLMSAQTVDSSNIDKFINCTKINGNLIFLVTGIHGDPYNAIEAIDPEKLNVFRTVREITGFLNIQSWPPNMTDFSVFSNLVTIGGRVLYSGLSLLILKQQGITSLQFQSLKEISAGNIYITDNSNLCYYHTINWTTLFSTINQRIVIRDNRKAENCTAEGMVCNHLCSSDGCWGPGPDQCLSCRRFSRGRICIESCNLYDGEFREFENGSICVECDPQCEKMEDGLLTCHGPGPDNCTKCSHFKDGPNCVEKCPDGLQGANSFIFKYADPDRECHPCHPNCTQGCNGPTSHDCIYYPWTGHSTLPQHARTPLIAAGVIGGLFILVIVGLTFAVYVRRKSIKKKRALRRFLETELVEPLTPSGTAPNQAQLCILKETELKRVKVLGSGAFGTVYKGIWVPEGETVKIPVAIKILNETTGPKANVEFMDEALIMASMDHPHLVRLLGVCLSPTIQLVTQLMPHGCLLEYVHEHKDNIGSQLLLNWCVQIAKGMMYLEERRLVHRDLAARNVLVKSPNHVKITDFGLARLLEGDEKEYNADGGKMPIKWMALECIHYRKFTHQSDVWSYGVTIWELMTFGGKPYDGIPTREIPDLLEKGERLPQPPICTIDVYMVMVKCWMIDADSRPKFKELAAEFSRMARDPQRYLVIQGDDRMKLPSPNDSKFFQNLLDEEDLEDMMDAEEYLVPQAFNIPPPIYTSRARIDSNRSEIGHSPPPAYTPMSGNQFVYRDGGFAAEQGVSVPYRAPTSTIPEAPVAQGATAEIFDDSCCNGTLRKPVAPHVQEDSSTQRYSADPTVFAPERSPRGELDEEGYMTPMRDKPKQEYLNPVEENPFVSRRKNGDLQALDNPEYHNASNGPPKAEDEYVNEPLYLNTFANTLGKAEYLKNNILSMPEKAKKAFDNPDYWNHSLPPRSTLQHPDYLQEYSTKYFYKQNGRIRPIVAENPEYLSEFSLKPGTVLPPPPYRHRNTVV
UniProt O75460: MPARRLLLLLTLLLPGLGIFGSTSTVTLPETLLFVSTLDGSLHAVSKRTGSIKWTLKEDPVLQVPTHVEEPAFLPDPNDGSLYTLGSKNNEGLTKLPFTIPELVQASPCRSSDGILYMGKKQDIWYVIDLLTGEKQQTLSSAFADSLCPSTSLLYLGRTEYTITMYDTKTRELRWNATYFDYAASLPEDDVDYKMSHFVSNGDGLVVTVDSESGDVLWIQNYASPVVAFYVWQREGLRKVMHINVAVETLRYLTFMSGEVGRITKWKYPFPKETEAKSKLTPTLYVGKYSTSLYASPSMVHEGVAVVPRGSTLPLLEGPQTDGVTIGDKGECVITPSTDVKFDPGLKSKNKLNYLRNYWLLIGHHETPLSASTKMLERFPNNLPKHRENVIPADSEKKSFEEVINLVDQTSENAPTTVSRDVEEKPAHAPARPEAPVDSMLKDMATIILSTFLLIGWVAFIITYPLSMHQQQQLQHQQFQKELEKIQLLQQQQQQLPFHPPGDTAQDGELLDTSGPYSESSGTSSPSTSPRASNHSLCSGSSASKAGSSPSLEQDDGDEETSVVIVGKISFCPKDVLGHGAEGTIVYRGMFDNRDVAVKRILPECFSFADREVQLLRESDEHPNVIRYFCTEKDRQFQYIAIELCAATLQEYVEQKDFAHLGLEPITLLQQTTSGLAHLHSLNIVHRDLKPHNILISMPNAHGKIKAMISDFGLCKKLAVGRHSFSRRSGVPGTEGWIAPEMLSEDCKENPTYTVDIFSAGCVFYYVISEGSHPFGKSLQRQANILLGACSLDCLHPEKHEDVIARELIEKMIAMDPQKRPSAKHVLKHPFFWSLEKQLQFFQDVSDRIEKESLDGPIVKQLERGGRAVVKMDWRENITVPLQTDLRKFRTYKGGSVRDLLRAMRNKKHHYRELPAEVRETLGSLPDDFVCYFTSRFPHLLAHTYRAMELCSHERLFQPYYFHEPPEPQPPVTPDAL
UniProt P21802, whole entry, looked up: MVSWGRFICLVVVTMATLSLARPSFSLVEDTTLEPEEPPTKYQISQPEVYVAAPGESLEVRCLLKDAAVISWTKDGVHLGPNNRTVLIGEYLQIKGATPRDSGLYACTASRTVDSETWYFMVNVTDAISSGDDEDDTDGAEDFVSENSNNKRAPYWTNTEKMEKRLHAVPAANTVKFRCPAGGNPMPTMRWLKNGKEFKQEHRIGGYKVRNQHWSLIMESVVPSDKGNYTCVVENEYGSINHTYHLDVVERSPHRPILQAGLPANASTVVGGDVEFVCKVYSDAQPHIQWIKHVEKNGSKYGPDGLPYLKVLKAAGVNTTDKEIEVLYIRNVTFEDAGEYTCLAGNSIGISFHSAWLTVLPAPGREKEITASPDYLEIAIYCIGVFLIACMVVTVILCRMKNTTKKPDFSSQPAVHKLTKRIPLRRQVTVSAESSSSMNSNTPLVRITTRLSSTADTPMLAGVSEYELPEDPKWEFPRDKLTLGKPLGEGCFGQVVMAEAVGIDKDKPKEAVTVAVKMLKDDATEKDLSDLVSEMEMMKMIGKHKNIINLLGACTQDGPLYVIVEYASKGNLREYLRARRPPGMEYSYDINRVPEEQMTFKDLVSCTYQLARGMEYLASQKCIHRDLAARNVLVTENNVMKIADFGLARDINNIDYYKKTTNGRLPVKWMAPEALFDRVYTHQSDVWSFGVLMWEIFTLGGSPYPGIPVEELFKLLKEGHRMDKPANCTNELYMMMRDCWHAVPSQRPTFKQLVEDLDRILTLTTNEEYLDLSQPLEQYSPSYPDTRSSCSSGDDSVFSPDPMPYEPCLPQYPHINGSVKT
UniProt P22607, whole entry, looked up: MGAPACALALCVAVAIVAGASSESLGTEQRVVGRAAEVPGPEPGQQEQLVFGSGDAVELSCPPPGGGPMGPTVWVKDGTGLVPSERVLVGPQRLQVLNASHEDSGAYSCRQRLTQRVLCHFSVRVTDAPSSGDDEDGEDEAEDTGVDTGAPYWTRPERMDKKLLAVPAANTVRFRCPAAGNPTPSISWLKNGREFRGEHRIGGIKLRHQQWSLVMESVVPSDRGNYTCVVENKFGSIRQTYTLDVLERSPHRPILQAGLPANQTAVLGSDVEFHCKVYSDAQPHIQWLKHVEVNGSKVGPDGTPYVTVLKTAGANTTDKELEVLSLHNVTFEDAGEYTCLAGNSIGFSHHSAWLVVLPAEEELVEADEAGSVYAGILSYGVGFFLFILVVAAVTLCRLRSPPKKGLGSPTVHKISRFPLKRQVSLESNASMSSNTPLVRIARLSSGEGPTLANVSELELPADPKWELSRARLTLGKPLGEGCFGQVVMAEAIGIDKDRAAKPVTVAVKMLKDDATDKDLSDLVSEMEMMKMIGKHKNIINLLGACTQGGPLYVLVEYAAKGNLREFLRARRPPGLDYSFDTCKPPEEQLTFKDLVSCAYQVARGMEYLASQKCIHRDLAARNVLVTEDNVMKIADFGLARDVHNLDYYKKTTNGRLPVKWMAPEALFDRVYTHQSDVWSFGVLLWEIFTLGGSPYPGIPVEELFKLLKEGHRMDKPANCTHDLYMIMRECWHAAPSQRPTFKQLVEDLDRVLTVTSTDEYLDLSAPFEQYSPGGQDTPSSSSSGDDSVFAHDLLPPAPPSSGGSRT

Assays:
Assay in all cases: number of time points (of 5) at which kinase-Nluc abundance scored as decreased, DMSO-normalised (count); higher = more persistent destabilization
Conditions in all cases: K562; 2-18 h
[1] = molecular target: EGFR_L861Q (UniProt P00533)
[2] = molecular target: EGFR_T790M (UniProt P00533)
[3] = molecular target: EPHA2 (UniProt P29317)
[4] = molecular target: ERBB3 (UniProt P21860)
[5] = molecular target: ERBB4_R711C (clone: ERBB4_mut) (UniProt Q15303)
[6] = molecular target: ERN1 (UniProt O75460)
[7] = molecular target: FGFR1 (UniProt P11362)
[8] = molecular target: FGFR2 (UniProt P21802)
[9] = molecular target: FGFR3 (UniProt P22607)
[10] = molecular target: FGR (UniProt P09769)

Measured: number of time points

O=S(=O)(NCCCN1c2ccccc2CCc2ccc(Cl)cc21)c1ccc(OC(F)(F)F)cc1 (2.5 µM)
0: all assays above

CCC(C)N1c2ccccc2C(=O)N(C)c2cnc(Nc3ccc(C(=O)N4CCC(N5CCN(C)CC5)CC4)cc3OC)nc21 (stereo not given) (2.5 µM)
0: all assays above

Cc1ccc(C(=O)Nc2ccc(Oc3cc4cnn(C)c4cc3-c3cn[nH]c3)c(F)c2)c(=O)n1-c1ccc(F)cc1 [Merestinib] (2.5 µM)
0: all assays above

c1ccc(-c2[nH]ncc2-c2ccnc3ccccc23)nc1 (10 µM)
0: all assays above

O=c1[nH]c(=O)n([C@@H]2O[C@H](CO)[C@@H](O)[C@@H]2O)cc1/C=C/Br [Sorivudine] (10 µM)
0: all assays above

CCCS(=O)(=O)Nc1ccc(F)c(C(=O)c2c[nH]c3ncc(-c4ccc(Cl)cc4)cc23)c1F [Vemurafenib] (10 µM)
1: [7] | [9]
0: all other assays above

COc1cc2ncc(-c3ccccc3)nc2cc1OC [Tyrphostin AG1296] (10 µM)
0: all assays above

CC1CCc2c(cc(Br)c(F)c2Br)N1C=O (stereo not given) (10 µM)
0: all assays above

COc1cc(/C=C/C(=O)NCC(O)c2ccc(O)cc2)ccc1O (stereo not given) [N-Feruloyloctopamine] (2.5 µM)
0: all assays above

COc1cc2c(cc1OC)CN(S(=O)(=O)c1ccc(OC)c(N3CCN(C(=O)c4ccc(F)cc4C(F)(F)F)CC3)c1)CC2 (10 µM)
0: all assays above

Cc1nc(-c2cn3c(n2)-c2ccc(-c4cnn(C(C)(C)C(N)=O)c4)cc2OCC3)n(C(C)C)n1 [Taselisib] (10 µM)
0: all assays above

COc1ccc2c(OCc3nnc4ccc(-c5ccccc5)nn34)ccnc2c1 (2 µM)
0: all assays above

C[C@@H](c1ccc(-c2ccccc2)c(F)c1)c1cc(NC(=N)N2CCOCC2)on1 [Rimacalib] (10 µM)
0: all assays above

CN(CC(=O)N(Cc1ccc(C2CCCCC2)cc1)c1ccc(C(=O)NO)cc1)S(=O)(=O)c1c(F)c(F)c(F)c(F)c1F (2.5 µM)
0: all assays above

CC(C)(C)c1nc(-c2cccc(NS(=O)(=O)c3c(F)cccc3F)c2F)c(-c2ccnc(N)n2)s1 [Dabrafenib] (2.5 µM)
0: all assays above

O=C1NC(=O)/C(=C/c2ccc3nccnc3c2)S1 (10 µM)
0: all assays above

Cc1cc(CN2CCN(c3c(Br)cnc4nc(-c5ccc(N6CCN(C)CC6)cc5)[nH]c34)CC2)no1 (2.5 µM)
0: all assays above

Oc1cc(O)c2cc(O)c(-c3cc(O)c(O)c(O)c3)[o+]c2c1 [Delphinidin (chloride)] (10 µM)
4: [6]
1: [9]
3: [1] | [10]
0: all other assays above

Cc1[nH]c(/C=C2\C(=O)Nc3ccc(F)cc32)c(C)c1C(=O)N[C@H]1CCN(C(=O)N(C)C)C1 [Vorolanib] (10 µM)
0: all assays above

COc1cc(OC2CCN(C)CC2)ccc1Nc1ncc2c(n1)n(C1CCCC1)c(=O)n2C (10 µM)
0: all assays above

OCCn1cc(-c2ccc3c(c2)CC/C3=N\O)c(-c2ccncc2)n1 (10 µM)
0: all assays above

Cn1cnc2c(F)c(Nc3ccc(Br)cc3Cl)c(C(=O)NOCCO)cc21 [Selumetinib] (10 µM)
1: [8]
2: [4]
0: all other assays above

Nc1ncnc2c1c(-c1cccc(OCc3ccccc3)c1)cn2C1CC(CN2CCC2)C1 (stereo not given) (2.5 µM)
0: all assays above

Cc1cccc(Oc2cnc(=O)[nH]c2)c1 [Tolimidone] (10 µM)
0: all assays above

Cc1ccc(OCCSc2ncccn2)c(Br)c1 [ZLN024 (hydrochloride)] (10 µM)
0: all assays above

COc1cc(Nc2ncc(F)c(Nc3ccc4c(n3)N(COP(=O)(O)O)C(=O)C(C)(C)O4)n2)cc(OC)c1OC [Fostamatinib (disodium hexahydrate)] (10 µM)
0: all assays above

CN(C)CCSSCCNC(=O)C1CCN(C(=O)CSc2ccc(Cl)cc2)CC1 (10 µM)
0: all assays above

C[C@@]1(c2ncncc2F)NC(=O)c2cc(-c3cn[nH]c3)ccc21 (10 µM)
0: all assays above

Nc1cc(C(F)(F)F)c(-c2cc(N3CCOCC3)nc(N3CCOCC3)n2)cn1 [Buparlisib (Hydrochloride)] (2.5 µM)
1: [8]
2: [1]
3: [5]
0: all other assays above

NC(=O)c1nnc(N[C@@H]2CCCC[C@@H]2N)nc1Nc1cccc2cc[nH]c12 (10 µM)
0: all assays above

CC(C)(O)CNc1ncc(-c2ccnc(Nc3ccnc(Cl)c3)n2)c(CC2CC2)n1 (2.5 µM)
0: all assays above

O=c1cc(CN2CCOCC2)occ1OCCCCCSc1ccnc2cc(C(F)(F)F)ccc12 (10 µM)
0: all assays above

NC(=O)c1nc(Nc2ccccc2)sc1NC(=O)C1CCCCC1 (10 µM)
0: all assays above

CCc1cc2c(cc1N1CCC(N3CCOCC3)CC1)C(C)(C)c1[nH]c3cc(C#N)ccc3c1C2=O [Alectinib] (10 µM)
0: all assays above

COc1cc2nccc(Oc3ccc(NC(=O)NC4CC4)c(Cl)c3)c2cc1C(N)=O [Lenvatinib] (10 µM)
0: all assays above

Cc1cc(Nc2ncnc3ccc(NC4=NC(C)(C)CO4)cc23)ccc1Oc1ccn2ncnc2c1 [Tucatinib] (2.5 µM)
0: all assays above

CCOc1ccc2cc(-c3nn(CC4CCN(C)CC4)c4ncnc(N)c34)ccc2n1 (10 µM)
0: all assays above

CC#CC(=O)N1CC[C@@H](n2c(=O)n(-c3ccc(Oc4ccccc4)cc3)c3c(N)ncnc32)C1 [Tirabrutinib] (10 µM)
0: all assays above

COc1cc(Nc2ncc(F)c(Nc3ccc4c(n3)N(COP(=O)(O)O)C(=O)C(C)(C)O4)n2)cc(OC)c1OC [Fostamatinib Disodium] (10 µM)
0: all assays above

O=C(CSC1=NCCN1)NC1CCCCCC1 [ICCB-19 (hydrochloride)] (2.5 µM)
0: all assays above

O=C(NCCN1CCOCC1)c1cc2c(Oc3ccc(NC(=O)C4(C(=O)Nc5ccc(F)cc5)CC4)cc3)ccnc2[nH]1 [Tyrosine kinase inhibitor] (10 µM)
0: all assays above

COCCNc1nc2ccc(C#CC3(O)CCCCC3)cc2n1-c1ccnc(N)n1 (10 µM)
0: all assays above

CNC(=O)c1c(F)cccc1Nc1nc(Nc2cc3c(cc2OC)CCN3C(=O)CN(C)C)nc2[nH]ccc12 (10 µM)
0: all assays above

Cc1cc(=O)oc2c(C=O)c(O)ccc12 (10 µM)
0: all assays above

Cc1cccc(-c2[nH]ncc2-c2ccc(F)c(-c3cnn(CCO)c3)c2)n1 (10 µM)
0: all assays above

NC(=O)c1ccc(-c2nc(-c3ccc4c(c3)OCCO4)c(-c3ccccn3)[nH]2)cc1 (10 µM)
0: all assays above

CN1CCC(c2cc(-c3ccncc3)c(-c3ccc(F)cc3)[nH]2)CC1 (10 µM)
0: all assays above

Cn1cnc(Cn2ccc3ccc(CNCc4[nH]c5ccccc5c4[C@H]4NC(=O)c5ccc(O)cc54)cc32)c1 (10 µM)
0: all assays above

Copied from the entries so far (four entries):
Cc1cccc(-c2[nH]ncc2-c2ccc(F)c(-c3cnn(CCO)c3)c2)n1 (10 µM)
0: all assays above

NC(=O)c1ccc(-c2nc(-c3ccc4c(c3)OCCO4)c(-c3ccccn3)[nH]2)cc1 (10 µM)
0: all assays above

CN1CCC(c2cc(-c3ccncc3)c(-c3ccc(F)cc3)[nH]2)CC1 (10 µM)
0: all assays above

Cn1cnc(Cn2ccc3ccc(CNCc4[nH]c5ccccc5c4[C@H]4NC(=O)c5ccc(O)cc54)cc32)c1 (10 µM)
0: all assays above

Next part:

CCS(=O)(=O)Nc1ccc2[nH]c(O)c(C(=Nc3ccc(CN4CCCCC4)cc3)c3ccccc3)c2c1 [Hesperadin] (2.5 µM)
3: [1] | [4] | [5] | [8]
2: [9]
0: all other assays above

COc1ccc(-c2ccc3c(N4CCOCC4)nc(N4C[C@@H](C)O[C@@H](C)C4)nc3n2)cc1CO (2.5 µM)
0: all assays above

CN1CCN(c2cccc(Nc3nc4c(-c5ccc(S(C)(=O)=O)cc5)cccn4n3)c2)CC1 (10 µM)
0: all assays above

c1cc(-c2c[nH]c3nccc(N4CCC[C@@]5(CCCCN5)C4)c23)ncn1 (10 µM)
0: all assays above

C=CC(=O)Nc1cc(Nc2ncc(Cl)c(-c3c[nH]c4ccccc34)n2)c(OC)cc1N(C)CCN(C)C [Mutant EGFR inhibitor] (2.5 µM)
2: [7]
1: [4] | [8]
0: all other assays above

C=C1C(=O)O[C@H]2C[C@H](C)C(/C=C/C(C)=O)=CC[C@H]12 [Xanthatin] (2.5 µM)
0: all assays above

CCN1CCC(n2cc(CNc3cc(Cl)c4ncc(C#N)c(Nc5ccc(F)c(Cl)c5)c4c3)nn2)CC1 [Cot inhibitor-2] (2.5 µM)
0: all assays above

NC(=O)c1ccc2[nH]ccc2c1 (10 µM)
0: all assays above

Reprinted at random: 2 records from the list.
CC1CCc2c(cc(Br)c(F)c2Br)N1C=O (stereo not given) (10 µM)
0: all assays above

O=C(NCCN1CCOCC1)c1cc2c(Oc3ccc(NC(=O)C4(C(=O)Nc5ccc(F)cc5)CC4)cc3)ccnc2[nH]1 [Tyrosine kinase inhibitor] (10 µM)
0: all assays above

Later entries:

Cn1nccc1Nc1nccc(-c2ccn([C@H](CO)c3ccc(Cl)c(F)c3)c(=O)c2)n1 [Ravoxertinib hydrochloride] (10 µM)
0: all assays above

O=C(O)CCC(=O)Nc1ccc(Br)cn1 [Bikinin] (10 µM)
0: all assays above

CN1CCN(c2cnc3c(C4CCN(C(=O)c5ccc(OC(F)(F)F)cc5N)CC4)ncnc3c2)CC1 (10 µM)
0: all assays above

CCN1CCN(Cc2ccc(Nc3ncc(F)c(-c4cc(F)c5nc(C)n(C(C)C)c5c4)n3)nc2)CC1 [Abemaciclib (methanesulfonate)] (10 µM)
1: [1]
4: [4] | [5] | [6]
3: [8]
0: all other assays above

C=CC(=O)Nc1cc(C)ccc1Nc1nc(Nc2cc(OC)ncc2C)ncc1C(F)(F)F (10 µM)
0: all assays above

O=Nc1c(-c2c(O)[nH]c3ccc(I)cc23)[nH]c2ccccc12 [5-Iodo-indirubin-3'-monoxime] (10 µM)
0: all assays above

CN1C(=O)N[C@H](Cc2c[nH]c3c(Cl)cccc23)C1=O [Necrostatin 2] (10 µM)
0: all assays above

COc1ccc(Cl)c(Nc2nc3ccccc3nc2NS(=O)(=O)c2cccc(NC(=O)C(C)(C)N)c2)c1 [Pilaralisib] (10 µM)
0: all assays above

CC(=O)c1c(C)cc2cccc(O)c2c1O [Nepodin] (10 µM)
0: all assays above

S=C(SSC(=S)N1CCOCC1)N1CCOCC1 (10 µM)
3: [1] | [8]
1: [5] | [10]
0: all other assays above

Cn1cc(-c2cnn3c(N)c(Br)c([C@@H]4CCCNC4)nc23)cn1 (2.5 µM)
1: [4] | [9]
2: [1] | [5] | [7] | [8]
0: all other assays above

Oc1ccc(Nc2nc(-c3ccc(Cl)cc3)cs2)cc1 (10 µM)
0: all assays above

COc1cccc(OC)c1C(=O)OCc1cc(O)ccc1O[C@@H]1O[C@H](CO)[C@@H](O)[C@H](O)[C@H]1O [Curculigoside] (10 µM)
0: all assays above

Cc1cc2ncc(-c3ccc(O)c(O)c3)nc2cc1C [Tyrphostin AG1433] (10 µM)
0: all assays above

Nc1ccc(-c2cnc(N)c(-c3ccc(Cl)cc3)c2)cn1 (10 µM)
0: all assays above

C=CC(=O)Nc1ccc(CN2C(=O)N(c3cc(OC)cc(OC)c3)Cc3cnc(Nc4ccc(N5CCN(C)CC5)cc4)nc32)cc1 (2.5 µM)
0: all assays above

CCN1CCN(Cc2ccc(-c3cc4c(N[C@H](C)c5ccccc5)ncnc4[nH]3)cc2)CC1 (2.5 µM)
4: [4]
1: [1] | [3]
3: [8]
2: [5] | [6] | [7]
0: all other assays above

Cc1nc2sccn2c(=O)c1CCN1CCC(=C(c2ccccc2)c2ccc(F)cc2)CC1 (10 µM)
0: all assays above
